The target of this assay is chymotrypsin-treated Cry3Bb (Bacillus thuringiensis) (UniProt Q06117). As to the kind of experiment: ELISA-based binding assay: plates coated with chymotrypsin-treated Cry3Bb, biotinylated TmCad1-TBR, streptavidin-HRP detection. Background: ELISA stands for enzyme-linked immunosorbent assay.

Protein sequences, listed by entry. Tags and fused reporters are not part of them. Residues count along the entry.
UniProt Q06117, residues 162-652: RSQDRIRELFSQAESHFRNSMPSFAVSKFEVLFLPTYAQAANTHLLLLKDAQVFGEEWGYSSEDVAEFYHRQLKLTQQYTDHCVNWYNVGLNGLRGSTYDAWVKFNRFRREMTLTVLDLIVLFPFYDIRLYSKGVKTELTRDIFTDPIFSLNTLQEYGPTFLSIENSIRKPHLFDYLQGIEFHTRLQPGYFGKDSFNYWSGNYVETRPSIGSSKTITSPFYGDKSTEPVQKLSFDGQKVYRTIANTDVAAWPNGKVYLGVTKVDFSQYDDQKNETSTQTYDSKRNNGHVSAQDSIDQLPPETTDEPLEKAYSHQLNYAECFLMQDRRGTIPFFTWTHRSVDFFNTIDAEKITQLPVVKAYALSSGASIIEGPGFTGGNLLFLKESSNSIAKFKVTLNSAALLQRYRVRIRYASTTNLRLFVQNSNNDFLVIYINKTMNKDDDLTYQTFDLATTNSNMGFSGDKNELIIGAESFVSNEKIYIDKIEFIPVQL

The record followed here is patent US20110201549A1 (UNIVERSITY OF GEORGIA RESEARCH FOUNDATION, published 2011).

No constants are given. Whether binding was seen depends on the method and setting. Some binding calls cover weakened binding; strength is not graded here.

B1: TmCad1-TBR cadherin fragment from the Tenebrio molitor cadherin (T. molitor cadherin Toxin Binding Region) (receptor)
chain: MKQWYQRRVAITAGKDTTSKDKLQYNIDNITPSNLDLDIKSAFTMNTQSGDITINFEVKDSMEGYFTLDLSVQDEEPENHKADATLKIYIVTSKNTVVFRFENDQETVSDKAGDIKSVLDEEFQYETKVEAPTGNTTDGTPLTRSPVFFLNLNTNEPVDATEILKKVTNVDVFQRLKNNFSKVGLVLLSFDSSSETNENLEAHHHHHH
modifications: biotinylated (sites not given)
notes: also called CR12-MPED of TmCad1
Consider B1, for which the binding result is on record as “binds”.
